# In PubChem BioAssay AID493014 (National Center for Advancing Translational Sciences (NCATS), 2011):
# The list shows a part of the results. The main result of the screen is listed elsewhere. These columns were measured beside it and carry no call. Most of these compounds were active or inconclusive in the main read-out, so they are no random draw. Words in brackets tell the shape of the fitted curve; partial curves, single points and poor fits give uncertain potencies.
# Test: qHTS Assay to Find Inhibitors of Chronic Active B-Cell Receptor Signaling
# Details: ABC-DLBCL IkBa-CBG/CBR reporter, luminescence ratio (green luciferase fused to IkBa over red control in TMD8 lymphoma cells), 4 h
# Method in brief: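 TMD8 ABC-DLBCL cells carrying doxycycline-inducible green luciferase fused to IkappaBalpha plus unfused red luciferase were exposed to compounds (up to 46 uM) for 4 hrs at 37C. Activity came from the overlap-corrected green/red luminescence ratio.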
# [1] = measured here: CBR red luminescence, cell number
# [2] = measured here: IkBa-CBG green luminescence
SMILES,AC50 [1],AC50 [2]
O=C(CCn1nc(-c2ccccc2)c2ccccc2c1=O)N1CCN(c2ccccc2)CC1,"20.6 µM [falling, single point]",–
CCCCNC(=O)Nc1nc2ccccc2s1,"10 µM [falling, partial curve, poor fit]",–
COc1ccc(-c2noc(CCC(=O)O)n2)cc1,"4.11 µM [falling, partial curve]","1.03 µM [rising, full curve, poor fit]"
CCN1/C(=C/C(=S)Nc2ccccc2)Sc2ccccc21,"20 µM [falling, partial curve, poor fit]",–
O=S(=O)(c1ccc(SCc2cccc(Cl)c2)nc1)N1CCCC1,"6.51 µM [rising, partial curve, poor fit]",–
Cc1cc(C)c2cc(CN(CCO)C(=O)Nc3ccc(F)cc3)c(=O)[nH]c2c1,"18.4 µM [falling, single point]",–
O=C(N/N=C/C1CC=CCC1)c1ccc(O)cc1O (stereo unspecified),"7.31 µM [falling, partial curve]",–
Cc1ccc2nc(N3C(=O)C(O)=C(C(=O)c4ccc(C)o4)C3c3ccc(O)cc3)sc2c1 (stereo unspecified),"0.58 µM [falling, full curve]",–
COc1ccc2nc(SCC(=O)Nc3ccccc3C#N)[nH]c2c1,"35.5 µM [rising, single point]",–
COC(=O)c1c(-c2ccc(OC)cc2)sc2cc3c(cc12)OCO3,"18.4 µM [rising, partial curve]",–
CS(=O)(=O)N(CC(=O)NCCSCc1c(F)cccc1Cl)c1ccc2c(c1)OCO2,"3.26 µM [rising, full curve, poor fit]","29.1 µM [falling, partial curve, poor fit]"
Cc1cc(NS(=O)(=O)c2ccc(NC(=O)Nc3cccc(C(F)(F)F)c3)cc2)no1,"2.24 µM [falling, partial curve, poor fit]",–
COc1cc(OC)cc(C(=O)N/N=C(\C)CC(=O)Nc2ccccn2)c1,"0.562 µM [falling, full curve, poor fit]","12.6 µM [falling, partial curve]"
CCOc1ccc(-n2c(SCc3nc(-c4ccc(C)cc4)no3)nnc2-c2ccncc2)cc1,"29.1 µM [falling, single point]",–
COc1cccc(OC)c1/C=C/C(=O)NC1CCCCC1,"7.94 µM [falling, partial curve, poor fit]",–
CCc1cccc(NC(=O)Cn2c(=O)n3nc(-c4cccc(F)c4)nc3c3ccccc32)c1,"7.94 µM [rising, partial curve, poor fit]",–
COc1ccc(NC(=O)CSc2nnc3ccc(-c4cccnc4)nn23)c(OC)c1,"1.3 µM [falling, full curve, poor fit]",–
CCN(CC(=O)Nc1ccc2c(c1)OCCO2)C(=O)c1cccc(OCC(C)C)c1,"10 µM [falling, single point]",–
COc1ccc2[nH]c3c(c2c1)CCN1C(=O)N([C@@H](C)C(=O)NCCc2ccc(F)cc2)C(=O)[C@]31C,"10 µM [falling, partial curve, poor fit]",–

SMILES,AC50 [1],AC50 [2]
O=C(CCc1nc2ccccc2c(=O)[nH]1)NNC(=O)COc1cccc(F)c1,"5.8 µM [rising, partial curve, poor fit]",–
CNC(=S)N(CCc1ccc(OC)c(OC)c1)C1CC(=O)N(c2ccccc2)C1=O (stereo unspecified),"35.5 µM [falling, single point]",–
CCCN(Cc1cc2cc(C)ccc2[nH]c1=O)C(=O)c1cccc([N+](=O)[O-])c1,"5.62 µM [rising, single point]",–
CCCC(CCC)C(=O)NCCN1CCOCC1,"2.59 µM [rising, single point]","2.91 µM [rising, partial curve, poor fit]"
Cc1ccc(C(=O)N2CCN(CCNC(=O)C(=O)Nc3ccc(Cl)cc3)CC2)cc1,"0.398 µM [falling, full curve]",–
CCOc1ccc(NC(=O)C2CCCN(C(=O)Nc3ccccc3)C2)cc1 (stereo unspecified),"11.6 µM [rising, partial curve]",–
COc1ccc(N2C(=O)CSC23C(=O)N2c4c(cccc43)C(C)=CC2(C)C)cc1 (stereo unspecified),"18.4 µM [falling, partial curve, poor fit]",–
CC(C)(C)c1nnc(N/N=C/c2ccc(O)cc2)n(N)c1=O,"29.1 µM [rising, single point]",–
COc1ccccc1NC(=O)Cc1csc(NC(=S)Nc2ccccc2)n1,"1.26 µM [rising, partial curve, poor fit]",–
O=C(CN(c1ccc(F)cc1)S(=O)(=O)c1ccc2c(c1)OCCO2)NCc1ccncc1,"35.5 µM [falling, single point]",–
COc1ccccc1/C=C1\SC(=S)N(CCC(=O)Nc2ccc(C(=O)O)c(O)c2)C1=O,"10 µM [falling, single point]",–
Cc1cccc(OCCNC(=O)c2ccc(Cl)c(S(=O)(=O)NCc3cccnc3)c2)c1,–,"16.4 µM [falling, single point]"
Cc1cc(C)cc(N(C(=O)Cn2nnc3ccccc32)C(C(=O)NCc2ccco2)c2ccncc2)c1 (stereo unspecified),–,"29.1 µM [rising, partial curve, poor fit]"
O=C(COC(=O)C1CCN(c2ccc(C(F)(F)F)cn2)CC1)NC1CCCCC1,"20.6 µM [rising, partial curve, poor fit]",–
O=C(Nc1nc2c(F)cccc2s1)c1ccc([N+](=O)[O-])o1,"0.224 µM [falling, full curve]",–
Clc1ccc(CSc2ncccn2)cc1,"25.9 µM [rising, single point]",–
C#CCOCCOCCOCCNc1nc(N2CCN(C(=O)CCCCCCCCCCNC(=O)[C@H]([C@@H](C)CC)n3cc(CCCCCN)nn3)CC2)nc(N2CCN(C(=O)CCCCCCCCCCNC(=O)[C@@H]([C@H](C)O)n3cc(C)nn3)CC2)n1,"29.1 µM [falling, single point]",–
CC(C)COC(=O)n1c(SCC(=O)N(C)C)nc2ccccc21,"0.794 µM [falling, full curve, poor fit]",–

# Exported with tabs: entries from further up.
SMILES	AC50 [1]	AC50 [2]
CC(C)(C)c1nnc(N/N=C/c2ccc(O)cc2)n(N)c1=O	29.1 µM [rising, single point]	–
COc1ccccc1NC(=O)Cc1csc(NC(=S)Nc2ccccc2)n1	1.26 µM [rising, partial curve, poor fit]	–
